The record followed here is US20180010140A1 (WASHINGTON STATE UNIVERSITY, published 2018).

Test [1] concerns the target T1, CUL3a, yeast two-hybrid construct (Arabidopsis thaliana, UniProt Q9ZVH4 1-732, limits assumed).
T1 construct: Yeast two-hybrid fusion; also called cullin 3a
T1 sequence (looked up): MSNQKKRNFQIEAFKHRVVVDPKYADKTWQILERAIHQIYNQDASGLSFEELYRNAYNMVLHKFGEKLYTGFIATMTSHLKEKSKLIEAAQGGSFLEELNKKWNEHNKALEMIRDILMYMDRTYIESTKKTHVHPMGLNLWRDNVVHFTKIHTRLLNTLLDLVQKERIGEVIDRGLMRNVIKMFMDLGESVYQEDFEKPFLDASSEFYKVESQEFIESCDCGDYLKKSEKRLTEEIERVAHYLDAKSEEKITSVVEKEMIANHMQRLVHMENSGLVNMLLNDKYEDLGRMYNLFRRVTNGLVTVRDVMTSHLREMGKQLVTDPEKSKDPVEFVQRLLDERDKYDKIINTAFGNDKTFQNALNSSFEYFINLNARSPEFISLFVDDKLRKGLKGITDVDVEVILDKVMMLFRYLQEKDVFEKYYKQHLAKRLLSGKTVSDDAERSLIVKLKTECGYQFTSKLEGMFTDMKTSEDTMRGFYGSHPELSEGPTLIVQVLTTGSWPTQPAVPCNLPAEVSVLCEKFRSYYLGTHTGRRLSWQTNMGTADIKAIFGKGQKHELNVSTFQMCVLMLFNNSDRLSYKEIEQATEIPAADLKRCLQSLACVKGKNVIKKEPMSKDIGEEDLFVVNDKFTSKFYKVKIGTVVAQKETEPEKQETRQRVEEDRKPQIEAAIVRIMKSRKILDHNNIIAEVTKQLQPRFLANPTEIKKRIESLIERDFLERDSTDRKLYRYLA
Briefly: yeast two-hybrid.

Test [2] addresses T2, BPM1 (At5 g19000), yeast two-hybrid construct (Arabidopsis thaliana, UniProt Q8L765 1-407, limits assumed).
T2 construct: also called BTB/POZ-MATH protein 1
T2 sequence (looked up): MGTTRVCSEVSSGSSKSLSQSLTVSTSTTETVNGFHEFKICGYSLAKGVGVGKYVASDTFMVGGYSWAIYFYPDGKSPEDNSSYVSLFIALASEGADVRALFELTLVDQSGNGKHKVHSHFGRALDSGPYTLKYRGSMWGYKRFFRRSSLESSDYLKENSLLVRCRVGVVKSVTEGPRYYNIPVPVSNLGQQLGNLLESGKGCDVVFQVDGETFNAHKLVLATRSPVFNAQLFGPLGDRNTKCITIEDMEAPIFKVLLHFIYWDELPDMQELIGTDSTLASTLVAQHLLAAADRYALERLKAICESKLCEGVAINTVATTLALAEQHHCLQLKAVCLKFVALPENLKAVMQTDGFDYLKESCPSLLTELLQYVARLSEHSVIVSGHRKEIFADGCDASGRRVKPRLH
Put plainly: yeast two-hybrid, BPM1 as prey.

B1: ERF4 (At3 g15210), yeast two-hybrid construct (other, Arabidopsis thaliana, UniProt O80340 1-222, looked up)
chain: MAKMGLKPDPATTNQTHNNAKEIRYRGVRKRPWGRYAAEIRDPGKKTRVWLGTFDTAEEAARAYDTAARDFRGAKAKTNFPTFLELSDQKVPTGFARSPSQSSTLDCASPPTLVVPSATAGNVPPQLELSLGGGGGGSCYQIPMSRPVYFLDLMGIGNVGRGQPPPVTSAFRSPVVHVATKMACGAQSDSDSSSVVDFEGGMEKRSQLLDLDLNLPPPSEQA
notes: Yeast two-hybrid fusion tested against BPM1 as prey
In the case of B1, the binding result in test [1] is “no binding”; in test [2] it was “binds”.

B2: ERF1 (At3 g23240), yeast two-hybrid construct (other, Arabidopsis thaliana, UniProt Q8LDC8 1-218, looked up)
chain: MDPFLIQSPFSGFSPEYSIGSSPDSFSSSSSNNYSLPFNENDSEEMFLYGLIEQSTQQTYIDSDSQDLPIKSVSSRKSEKSYRGVRRRPWGKFAAEIRDSTRNGIRVWLGTFESAEEAALAYDQAAFSMRGSSAILNFSAERVQESLSEIKYTYEDGCSPVVALKRKHSMRRRMTNKKTKDSDFDHRSVKLDNVVVFEDLGEQYLEELLGSSENSGTW
notes: as for B1
For the molecule B2, the binding result in test [1] is reported as “no binding”.

B3: RAV1 (At1 g13260), yeast two-hybrid construct (other, Arabidopsis thaliana, UniProt Q9ZWM9 1-344, looked up)
chain: MESSSVDESTTSTGSICETPAITPAKKSSVGNLYRMGSGSSVVLDSENGVEAESRKLPSSKYKGVVPQPNGRWGAQIYEKHQRVWLGTFNEEDEAARAYDVAVHRFRRRDAVTNFKDVKMDEDEVDFLNSHSKSEIVDMLRKHTYNEELEQSKRRRNGNGNMTRTLLTSGLSNDGVSTTGFRSAEALFEKAVTPSDVGKLNRLVIPKHHAEKHFPLPSSNVSVKGVLLNFEDVNGKVWRFRYSYWNSSQSYVLTKGWSRFVKEKNLRAGDVVSFSRSNGQDQQLYIGWKSRSGSDLDAGRVLRLFGVNISPESSRNDVVGNKRVNDTEMLSLVCSKKQRIFHAS
notes: as for B1
Consider B3, for which the binding result was “no binding” in test [1] and “binds” in test [2].

B4: DREB1a (At4 g25480), yeast two-hybrid construct (other, Arabidopsis thaliana, UniProt Q9M0L0 1-216, looked up)
chain: MNSFSAFSEMFGSDYESSVSSGGDYIPTLASSCPKKPAGRKKFRETRHPIYRGVRRRNSGKWVCEVREPNKKTRIWLGTFQTAEMAARAHDVAALALRGRSACLNFADSAWRLRIPESTCAKDIQKAAAEAALAFQDEMCDATTDHGFDMEETLVEAIYTAEQSENAFYMHDEAMFEMPSLLANMAEGMLLPLPSVQWNHNHEVDGDDDDVSLWSY
notes: as for B1
For the molecule B4, the binding result in test [1] was “no binding”; in test [2], “binds”.
